For 1 substance, binding results are on record in patent publication US20080171051A1, “Cancer Treatment” (priority 2003, published 2008).

The chains behind the UniProt entries cited, without tags or fusion partners. Residues count along the entry.
UniProt P25445, residues 26-335: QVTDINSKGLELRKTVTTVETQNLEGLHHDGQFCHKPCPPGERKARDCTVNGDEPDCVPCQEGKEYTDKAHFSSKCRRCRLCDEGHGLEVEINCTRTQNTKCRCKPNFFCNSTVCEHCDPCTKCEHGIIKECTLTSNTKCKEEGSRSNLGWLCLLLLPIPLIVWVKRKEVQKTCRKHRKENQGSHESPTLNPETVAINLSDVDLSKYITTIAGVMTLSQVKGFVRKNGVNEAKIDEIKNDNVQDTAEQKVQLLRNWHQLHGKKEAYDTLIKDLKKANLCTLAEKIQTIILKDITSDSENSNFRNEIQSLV
UniProt P48023: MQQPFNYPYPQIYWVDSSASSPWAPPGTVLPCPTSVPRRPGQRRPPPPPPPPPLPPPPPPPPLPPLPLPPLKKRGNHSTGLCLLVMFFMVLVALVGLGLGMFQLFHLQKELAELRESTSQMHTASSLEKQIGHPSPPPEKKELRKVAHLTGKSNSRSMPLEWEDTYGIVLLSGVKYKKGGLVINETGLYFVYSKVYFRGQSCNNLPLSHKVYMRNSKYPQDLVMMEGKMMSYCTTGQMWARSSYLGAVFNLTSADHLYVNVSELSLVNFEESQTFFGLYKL

In this test the target is Fas death receptor (UniProt P25445). The experiment in a line: co-immunoprecipitation from MCF-7 lysates (IP FasL polyclonal antibody, Western blot Fas monoclonal antibody) after 5-FU or TDX. A general note: Immunoblotting shows a protein as a band on a membrane.

Results are given in words; binding and its absence hold for the method and conditions named. In cells and extracts the contact can be indirect. Some entries that bind do so weakly or less than the wild type.

Take “FasL (from UniProt P48023 1-281) (ligand)”: the binding result was “binds”.
